Screening data

From PubChem BioAssay record AID1159506 (NCATS, 2015).

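Luminescence from an EWS-FLI1 target-promoter (NR0B1) reporter, set against a CMV-promoter reporter, two days after silencing single genes in TC32 Ewing sarcoma cells.
Each siRNA was applied at 20 nM.
A z-score of the log NR0B1-over-CMV signal, less the median of siRNAs with the same seed; more negative means a stronger specific loss of the NR0B1 reporter.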

The strongest results of the screen are mostly left out here.
Sequences are the guide (antisense) strand, without overhang.

siRNA: UCAGAUUUCAACUCGUUGU
target gene: SFRP1
seed-corrected z-score: 0.1315

siRNA: UUUGAGGUAGGCAUACUCA
target gene: HNF4A
seed-corrected z-score: -0.2023

siRNA: UCGUGUUUUAACGAAAUCC
target gene: PARD3
seed-corrected z-score: 0.9715

siRNA: UUGAGGGUAAGCGAGAUGC
target gene: ATXN1
seed-corrected z-score: -0.7604

siRNA: UUCUGCAUGACGGAAGUGC
target gene: SMG9
seed-corrected z-score: -0.8309

siRNA: UUAAUGUCUGAUUAUAGGG
target gene: CTBS
seed-corrected z-score: -1.073

siRNA: AUCCUUACUAGCCCAAGCC
target gene: MCM7
seed-corrected z-score: 1.067

siRNA: UUCUAGUUCGCUGUUGCGC
target gene: MID2
seed-corrected z-score: 0.05164

siRNA: AUAGUAGUAAAGGUCUCCC
target gene: SEL1L3
seed-corrected z-score: 0.2091

siRNA: AAUGGAAAAGCAUAUGUCU
target gene: HTR3B
seed-corrected z-score: -0.1911

siRNA: UGUCAUGAAGUGUUGAGCC
target gene: CD96
seed-corrected z-score: 0.222

siRNA: UUUUUCGUAUUCGUUUUGC
target gene: THOC7
seed-corrected z-score: 0.4495

siRNA: UUCAUAACAAGAAGUUCCC
target gene: ARNTL2
seed-corrected z-score: -1.546

siRNA: UAACGAUCUGGACAACAGC
target gene: LYPD6B
seed-corrected z-score: 0.4071

siRNA: UACGAAUUUACAGUUGGUC
target gene: DENND5B
seed-corrected z-score: -0.8153

siRNA: UUAACAUUCCUUAUCAGCC
target gene: LINC01545
seed-corrected z-score: 3.137

siRNA: AGCUGGACAAAUUGGACUC
target gene: SIRT5
seed-corrected z-score: -0.4587

siRNA: AAGGAUCACGAAGAUGACC
target gene: SSTR4
seed-corrected z-score: 0.3181

siRNA: UUUGUUCCACUCUAGGCUC
target gene: MICALL1
seed-corrected z-score: 1.899

siRNA: UGGUGUUUGAGGUAGUAGG
target gene: SYVN1
seed-corrected z-score: -0.6471

siRNA: UCAGGUACAAGCCGUAAGC
target gene: AKAP17A
seed-corrected z-score: -1.201

siRNA: UUCAUCGUCGUAAAUGUCC
target gene: SLC7A6OS
seed-corrected z-score: -0.2625

siRNA: UACGUAGCAGUACAUGAGC
target gene: NTSR2
seed-corrected z-score: -1.419

siRNA: UAGGGUUUCGGGUCACCAC
target gene: NMRAL1
seed-corrected z-score: -0.1836

siRNA: AACAGGGAGAGAUUCAGCG
target gene: SGPP2
seed-corrected z-score: -1.662

siRNA: UCUGAAUCAGGUAGUAACC
target gene: GLRA1
seed-corrected z-score: 0.6331

siRNA: UACGUUAGCUCAUUUUCCC
target gene: CD59
seed-corrected z-score: -0.2026

siRNA: UCUAGUUGUUUUGCUAUCC
target gene: RB1
seed-corrected z-score: -0.6008

siRNA: UUCCCUCGAAAAUAGAUCU
target gene: PRSS55
seed-corrected z-score: 0.5242

siRNA: UUUCAAUCCGUUCAUCCCG
target gene: COL18A1
seed-corrected z-score: -0.1816

siRNA: UUCUGGUCCUUUAAAAUAU
target gene: IL12B
seed-corrected z-score: 1.041

siRNA: UUGGUAACAUCCAAGGUGG
target gene: EIF2S3
seed-corrected z-score: 0.3152

siRNA: UUACUUCUCAACUGUAUGG
target gene: PEX10
seed-corrected z-score: 0.4265

siRNA: UAAUUCGUGACAGUCAGAG
target gene: MTMR2
seed-corrected z-score: 0.1518

siRNA: AAUUUUCCCAGCGUGAGCU
target gene: SGCG
seed-corrected z-score: 0.82

The last 2 entries again:

* UAAUUCGUGACAGUCAGAG against MTMR2 | seed-corrected z-score 0.1518
* AAUUUUCCCAGCGUGAGCU against SGCG | seed-corrected z-score 0.82